# US6881553B2 (priority 1999, dated 2005)
# For at least one compound, name, drawing or mass did not settle the structure.
# Assays:
# [1] = tested on: L. pneumophila in human monocyte-derived macrophages; type: cell-based, Legionella pneumophila
# L. pneumophila lysates = type: biochemical, Legionella pneumophila; settings: 2 mM
# L. pneumophila [2] = settings: cited from earlier work
# L. pneumophila [3] = settings: cited from earlier work; remark: listed apart in the source
SMILES,effectiveness at inhibiting intracellular growth relative to GFZ [1],intracellular growth of L. pneumophila in human macrophages ([1]; 1 mM),"inhibition of 14C-acetate incorporation in lysate, comparison between inhibitors (L. pneumophila lysates)",concentration inhibiting extracellular growth (L. pneumophila [2]),concentration inhibiting intracellular growth (L. pneumophila [3])
CC(C)(Oc1ccc(CCNC(=O)c2ccc(Cl)cc2)cc1)C(=O)O [bezafibrate],totally ineffective,no inhibition of L. pneumophila growth was observed,better inhibitor than GFZ,–,–
C[C@H]1c2cccc(O)c2C(=O)C2=C(O)[C@]3(O)C(=O)C(C(N)=O)=C(O)[C@@H](N(C)C)[C@@H]3[C@@H](O)[C@@H]21 [doxycycline],–,–,–,0.4 µg/mL,0.8 µg/mL
